For part of these data: For at least one compound, name, drawing or mass did not settle the structure. Some results were stated once for a whole list of compounds, not compound by compound. Some ranges recur; such a range may be that of the whole group of compounds.
Legend:
S. aureus [1] = experiment: minimal bactericidal concentration in the stationary growth phase (MBCstat); type: cell-based; settings: stationary growth phase S. aureus in vitro
Procedure: FIG. 2A is a schematic illustration showing the peak drug concentration of Compound 86 (1.13 μg/ml) in cage fluid from non-infected animals after single dose of 12.5 mg/kg. […] In this medium, bacterial counts remained stable in the absence of antibacterial agents for >36 hours.
In this medium, bacterial counts remained stable in the absence of antibacterial agents for >36 hours.
The minimal bactericidal concentration in the stationary growth phase (MBCstat) was determined by using overnight bacterial cultures which were centrifuged and resuspended in medium containing 1% glucose supplemented phosphate buffered saline (PBS) pH 7.4 with 4% Muller Hinton Broth (Zimmerli et al., J Antimicrob. Chemother. 33:959-967 (1994)). In this medium, bacterial counts remained stable in the absence of antibacterial agents for >36 hours.

S. aureus [2] = experiment: Foreign-body (tissue cage) infection model, antimicrobial treatment; type: in vivo, guinea pigs; settings: 5 mg/kg/12 h i.p.

| SMILES | times more effective than levofloxacin (MBCstat) (S. aureus [1]) | times more effective than rifampin (MBCstat) (S. aureus [1]) | no. culture negative/total no., cage fluid during treatment (S. aureus [2]; day 4) | no. culture negative/total no., cage fluid after treatment (S. aureus [2]; day 9) |
| --- | --- | --- | --- | --- |
| CO[C@H]1/C=C/O[C@@]2(C)Oc3c(C)c(O)c4c(=O)c(c5oc6cc(N7CC(N(C)C)C7)cc(O)c6nc-5c4c3C2=O)NC(=O)/C(C)=C\C=C\[C@H](C)[C@H](O)[C@@H](C)[C@@H](O)[C@@H](C)[C@H](OC(C)=O)[C@@H]1C [Compound 152] | 85-256 times | 8-23 times | – | – |
| C[C@H]1COc2c(N3CCN(C)CC3)c(F)cc3c(=O)c(C(=O)O)cn1c23 [Levofloxacin, levofloxacin, reference compound] | – | – | 0/12 | 0/12 |
| CO[C@H]1/C=C/O[C@@]2(C)Oc3c(C)c(O)c4c(=O)c(c5oc6cc(N7CC8CCC(C7)N8C)cc(O)c6nc-5c4c3C2=O)NC(=O)/C(C)=C\C=C\[C@H](C)[C@H](O)[C@@H](C)[C@@H](O)[C@@H](C)[C@H](OC(C)=O)[C@@H]1C [Compound 151] | 85-256 times | 8-23 times | – | – |

From US20070142392A1, “Uses of rifamycins” (ActivBiotics, Inc., priority 2005, published 2007)
